Values from PubChem BioAssay AID504764 (Drosophila RNAi Screening Center, 2011)
Purpose: 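Knock-downs that raise or lower a Notch target reporter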 (primary screen). Cell system: Drosophila Kc167 cells. Knock-down reagent: long dsRNA against Drosophila genes. Time to read-out: about 5 days (4 days dsRNA, then 24 h after transfection). Challenge: transfection of constitutively active membrane-tethered Notch lacking the extracellular domain, read 24 h later. Read-out: 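Light from a Notch-responsive E(spl)m3 luciferase reporter under active Notch, with control-promoter and no-Notch reporter wells to normalise; raw counts from paired wells a and b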. Reading the numbers: induced reporter light, run 1, well a and induced reporter light, run 1, well b: higher = more light from the Notch target reporter with active Notch; control promoter light, run 1, well a and control promoter light, run 1, well b: higher = more light from the viral control promoter (cell number, transfection, viability); uninduced reporter light, run 1, well a: higher = more light from the Notch target reporter without active Notch. Rule for the call: 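Hit if the duplicate-averaged log2 ratio of induced to control-promoter light gives a plate-wise z beyond ±2, or induced to uninduced beyond ±1.8; weak-control or discordant-duplicate wells dropped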. Calls: active = modifier hit (raised or lowered Notch signal); inactive = not a hit.
In all, the deposit lists about 22,000 reagents; shown is an unselected part of those with a known target gene and a result. Over the whole deposit, 403 (1.9%) are marked active. 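Unnormalised raw counts per well; ratio z-scores behind the hit calls and whether each hit raises or lowers signal are not deposited.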 A plus sign joins genes that one reagent is predicted to hit. Not given: the amount of reagent.

no.	target	dsRNA	induced reporter light, run 1, well a	induced reporter light, run 1, well b	control promoter light, run 1, well a	control promoter light, run 1, well b	uninduced reporter light, run 1, well a	activity call
1	CG6236	DRSC15999	1.03e5	81075	68285	63970	6265	inactive
2	ko (knockout)	DRSC11893	1.16e5	83620	1.07e5	93565	10505	inactive
3	CG12637	DRSC17845	1.44e5	1.51e5	2.97e5	3.16e5	12235	inactive
4	r2d2	DRSC03014	1.21e5	1.58e5	99180	1.30e5	20290	inactive
5	CG42502 + CG10570	DRSC02071	2.82e5	2.25e5	3.08e5	2.86e5	20085	inactive
6	CG5790	DRSC02896	1.87e5	1.73e5	1.61e5	1.68e5	14495	inactive
7	Prosbeta5R1 (Proteasome beta5 subunit-related 1)	DRSC04581	2.40e5	2.51e5	1.97e5	1.79e5	17440	inactive
8	mRpL46 (mitochondrial ribosomal protein L46)	DRSC08391	94565	1.30e5	1.47e5	1.46e5	4965	inactive
9	Cyp310a1 (Cytochrome P450 310a1)	DRSC03301	3.11e5	2.42e5	1.98e5	2.10e5	19510	inactive
10	CG31199	DRSC15284	1.69e5	1.86e5	1.95e5	2.10e5	14655	inactive
11	ome (omega)	DRSC09322	1.45e5	1.50e5	2.27e5	2.49e5	15870	inactive
12	ome (omega)	DRSC10282	1.36e5	1.82e5	2.32e5	2.53e5	7520	inactive
13	ome (omega)	DRSC11380	1.55e5	1.13e5	1.68e5	1.83e5	7195	inactive
14	Ogdh (Oxoglutarate dehydrogenase)	DRSC09854	2.01e5	1.44e5	1.07e5	1.42e5	10730	inactive
15	Ogdh (Oxoglutarate dehydrogenase)	DRSC09855	35100	36505	60095	55720	1645	inactive
16	CG8230	DRSC05931	1.62e5	1.57e5	1.80e5	1.73e5	12620	inactive
17	CG31706	DRSC22704						inactive
18	CG34462	DRSC10768	2.81e5	2.07e5	2.59e5	2.05e5	14020	inactive
19	PGRP-LE (Peptidoglycan recognition protein LE)	DRSC20137	1.84e5	1.85e5	2.37e5	2.08e5	13032	inactive
20	Acer (Angiotensin-converting enzyme-related)	DRSC01852	3.20e5	2.73e5	2.53e5	2.75e5	25255	inactive
21	Osi22 (Osiris 22)	DRSC16442	2.34e5	2.76e5	2.35e5	2.50e5	18115	inactive
22	CG5516	DRSC15826	2.15e5	2.63e5	2.48e5	1.99e5	15885	inactive
23	CG7755	DRSC07040	1.84e5	1.24e5	1.56e5	2.21e5	13705	inactive
24	GstE4 (Glutathione S transferase E4)	DRSC06674	34790	30640	36895	29150	3295	inactive
25	CG12016 + Dpm2	DRSC08224	56800	50175	22485	8785	11270	inactive
26	Uhg3 (U snoRNA host gene 3)	DRSC22963						inactive
27	NAT1	DRSC06854	45460	46030	56175	55495	4995	inactive
28	CG15386 + CG42371	DRSC00400	1.14e5	1.06e5	95065	58155	9875	inactive
29	Sec24AB (Secretory 24AB)	DRSC06478	1.74e5	1.63e5	1.65e5	1.44e5	12130	inactive
30	CG9346	DRSC04542	72885	68515	45415	49565	4565	inactive
31	CG15498	DRSC15040	1.70e5	1.59e5	2.00e5	2.00e5	10905	inactive
32	TfIIA-S (Transcription-factor-IIA-S)	DRSC16883	1.62e5	1.76e5	1.31e5	1.15e5	13195	inactive
33	CG5937	DRSC18392	1.11e5	1.09e5	1.42e5	1.49e5	6090	inactive
34	CG11110	DRSC06037	2.40e5	1.90e5	2.09e5	2.22e5	10525	inactive
35	Or56a (Odorant receptor 56a)	DRSC07495	35245	34805	37855	36330	3195	inactive
36	Sec20 (Secretory 20)	DRSC12295	1.00e5	93655	84335	66785	4945	inactive
37	pug (pugilist)	DRSC17036	98670	92675	95995	67075	5020	inactive
38	ArgRS-m (Arginyl-tRNA synthetase, mitochondrial)	DRSC14186	78155	94800	74185	67090	5880	inactive
39	CG10862	DRSC08170	1.15e5	1.11e5	1.88e5	1.36e5	6990	inactive
40	Wdr33 (WD repeat domain 33)	DRSC12162	80620	81840	40455	33170	6750	inactive
41	CG18808	DRSC08539	1.52e5	1.59e5	1.79e5	1.79e5	15715	inactive
42	CG18278 + CG30059	DRSC05418	1.94e5	2.40e5	3.06e5	2.76e5	18738	inactive
43	ltl (larval translucida)	DRSC10206	2.07e5	2.21e5	2.66e5	2.23e5	10450	inactive
44	ltl (larval translucida)	DRSC10870	2.48e5	1.90e5	2.27e5	1.91e5	9210	inactive
45	tkv (thickveins)	DRSC00860	81325	84680	79400	95210	8450	inactive
46	tkv (thickveins)	DRSC03623	1.94e5	1.99e5	1.80e5	1.76e5	17615	inactive
47	RhoGEF3 (Rho guanine nucleotide exchange factor 3)	DRSC08351	1.00e5	1.42e5	2.19e5	1.74e5	6025	inactive
48	RhoGEF3 (Rho guanine nucleotide exchange factor 3)	DRSC08352	1.25e5	1.33e5	2.95e5	2.68e5	6385	inactive
49	Gcn2	DRSC16678	1.88e5	1.81e5	2.41e5	2.63e5	12510	inactive
50	Pop5 (POP5 ribonuclease P/MRP subunit)	DRSC10074	2.25e5	1.91e5	3.47e5	2.73e5	11480	inactive

In a second layout: results already given.
{"target": "TfIIA-S (Transcription-factor-IIA-S)", "dsRNA": "DRSC16883", "induced reporter light, run 1, well a": 1.62e5, "induced reporter light, run 1, well b": 1.76e5, "control promoter light, run 1, well a": 1.31e5, "control promoter light, run 1, well b": 1.15e5, "uninduced reporter light, run 1, well a": 13195, "activity call": "inactive"}
{"target": "CG5937", "dsRNA": "DRSC18392", "induced reporter light, run 1, well a": 1.11e5, "induced reporter light, run 1, well b": 1.09e5, "control promoter light, run 1, well a": 1.42e5, "control promoter light, run 1, well b": 1.49e5, "uninduced reporter light, run 1, well a": 6090, "activity call": "inactive"}
{"target": "CG11110", "dsRNA": "DRSC06037", "induced reporter light, run 1, well a": 2.40e5, "induced reporter light, run 1, well b": 1.90e5, "control promoter light, run 1, well a": 2.09e5, "control promoter light, run 1, well b": 2.22e5, "uninduced reporter light, run 1, well a": 10525, "activity call": "inactive"}
